Experimental data published in paper PMC11538691.
No constants are given. Whether binding was seen depends on the method and setting. Some entries that bind do so weakly or less than the wild type. Values belong to the substance of their own block, whether it stands above or below them.

The chains behind the UniProt entries cited, without tags or fusion partners. Where a name states a change or a piece, a line headed by the entry shows the natural chain unless it says otherwise. A line that says so, or that is headed by a name, gives the form on record, which may keep a tag or linker.
UniProt P17931: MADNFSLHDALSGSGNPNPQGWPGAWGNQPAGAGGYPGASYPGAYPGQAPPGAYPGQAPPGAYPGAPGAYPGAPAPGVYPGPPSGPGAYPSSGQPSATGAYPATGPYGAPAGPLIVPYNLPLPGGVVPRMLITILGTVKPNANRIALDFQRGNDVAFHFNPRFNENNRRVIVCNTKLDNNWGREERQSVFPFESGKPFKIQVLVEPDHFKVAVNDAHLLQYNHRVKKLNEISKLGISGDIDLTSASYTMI
full-length galectin-3 D3/9G (P17931, form named): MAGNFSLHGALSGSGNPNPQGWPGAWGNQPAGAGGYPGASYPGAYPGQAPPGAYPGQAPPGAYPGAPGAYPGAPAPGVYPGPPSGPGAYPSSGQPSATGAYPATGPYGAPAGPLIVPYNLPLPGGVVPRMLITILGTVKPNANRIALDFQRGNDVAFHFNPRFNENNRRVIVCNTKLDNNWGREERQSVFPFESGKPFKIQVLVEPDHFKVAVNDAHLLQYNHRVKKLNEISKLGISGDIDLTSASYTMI

Columns and labels:
galectin-3 K210E (human) = galectin-3 K210E (human) (UniProt P17931); test: NMR titration; 1H-15N HSQC chemical shifts (Ala-216 region) and transverse relaxation rate constants R2 compared at 400 and 40 µM protein; one-phase regime; 30 °C; self-association, monomeric against assembled forms; both purified
galectin-3 K199E (human) = galectin-3 K199E (human) (UniProt P17931); test: as above
galectin-3 K199Q (human) = galectin-3 K199Q (human) (UniProt P17931); test: as above
[1] = molecular target: galectin-3 EE (K199E/K210E) (human) (UniProt P17931); test: as above
[2] = molecular target: galectin-3 GQQ (R129G/K199Q/K210Q) (human) (UniProt P17931); test: as above
[3] = molecular target: galectin-3 QQ (K199Q/K210Q) (human) (UniProt P17931); test: as above
[4] = molecular target: galectin-3 GEE (R129G/K199E/K210E) (human) (UniProt P17931); test: as above
galectin-3 K210Q (human) = galectin-3 K210Q (human) (UniProt P17931); test: as above
galectin-3 R129G (human) = galectin-3 R129G (human) (UniProt P17931); test: as above
[5] = molecular target: full-length galectin-3 D3/9G (human) (UniProt P17931); test: NMR titration; 1H-15N HSQC chemical shifts (Ala-216 region) of D3/9G against wild type and CRD-only at 40 µM and 200 µM protein; one-phase regime; 30 °C; both purified

- binding (galectin-3 K210E (human)): binds weakly
Substance: galectin-3 K210E (from UniProt P17931 1-250)

- binding (galectin-3 K199E (human)): binds weakly
Substance: galectin-3 K199E (from UniProt P17931 1-250)

- binding [2]: binds weakly
Substance: galectin-3 GQQ (R129G/K199Q/K210Q) (from UniProt P17931 1-250)

- binding [5]: binds
Substance: full-length galectin-3 D3/9G (from UniProt P17931 1-250)

The next lines start with the substance.

Substance: galectin-3 K199Q (from UniProt P17931 1-250)
- binding (galectin-3 K199Q (human)): binds

Substance: galectin-3 EE (K199E/K210E) (from UniProt P17931 1-250)
- binding [1]: binds weakly

Substance: galectin-3 QQ (K199Q/K210Q) (from UniProt P17931 1-250)
- binding [3]: binds weakly

Substance: galectin-3 GEE (R129G/K199E/K210E) (from UniProt P17931 1-250)
- binding [4]: binds weakly

Substance: galectin-3 K210Q (from UniProt P17931 1-250)
- binding (galectin-3 K210Q (human)): binds

Substance: galectin-3 R129G (from UniProt P17931 1-250)
- binding (galectin-3 R129G (human)): binds
